Results reported in PubChem BioAssay AID504834 (National Center for Advancing Translational Sciences (NCATS), 2011).
The whole screen tested about 320,000 compounds, of which about 22,000 (6.9%) were called active. This list was built around the results that the source calls inconclusive (neither active nor inactive); the mix of calls is not that of the screen. The call rests on the fitted dose curve; in most records, active means well fitted inhibition curve with a large enough effect; inconclusive means small, poorly fitted or top-dose-only effect, or another doubt; inactive means no such curve, though single readings can be large or run the other way. Potencies beside an inconclusive call are fits to weak or partial responses and may not hold up.

experiment: Primary qHTS for delayed death inhibitors of the malarial parasite plastid, 96 hour incubation; conditions: P. falciparum luciferase reporter growth; series mostly up to 28.7 µM; activity change, negative = inhibition: at the top concentration
How it was run: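 Plates of compound plus infected erythrocytes (2% hematocrit, 0.05% parasitemia final) incubate 96 hours, 37 C, 5% CO2. Detection reagent added; reduced luminescence from the parasites' luciferase reporter flags inhibition.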
On the % scale 0 is the no-effect control and ±100 the full control effect; potency means the concentration at half of the fitted maximal effect.

Structure (SMILES) | activity change, negative = inhibition | Potency
COc1ccc(CNC(=O)Cn2cccc2C(=O)c2ccccc2)cc1 | inactive: 7.39% | –
Cc1ccc(S(=O)(=O)C2(C(=O)NC3CCCCC3)CC2)cc1 | – | inconclusive: 20.8 µM [inhibitor, single point]
Cc1ccc(N(Cc2cc3ccc(C)cc3[nH]c2=O)C(=O)c2ccco2)c(C)c1 | – | inconclusive: 0.0329 µM [inhibitor, full curve, poor fit]
O=C(O)CSCC(=O)N1CCN(c2ccnc3cc(Cl)ccc23)CC1 | – | inconclusive: 14.7 µM [inhibitor, single point]
COc1ccc(CNC(=O)[C@@H](NC(=O)C2CCN(S(=O)(=O)c3ccccc3)CC2)C(C)C)cc1 | – | inconclusive: 18.5 µM [inhibitor, single point]
O=C(Cn1c(=O)c2cccn2c2ccccc21)NCc1cccc(F)c1 | – | inconclusive: 8.28 µM [inhibitor, partial curve, poor fit]
O=C(Nc1nnc(SCCC2OCCO2)s1)C1CC(=O)N(c2ccc(F)cc2)C1 (centres undefined) | – | active: 10.4 µM
COc1cc(CC(=O)Nc2nc(C)cs2)cc(OC)c1OC | inactive: -34.1% [at 5.75 µM] | –
O=[N+]([O-])c1ccc(N/N=C\c2cccnc2)nc1 | inactive: 19.5% | –
Cc1ccc(C(=O)NNC(=O)c2cc(OCC(F)(F)F)ccc2OCC(F)(F)F)cc1 | inactive: 75.8% | –
COc1ccc(/C=C/CN2CCCC(C(=O)c3cc(F)ccc3F)C2)cc1 (centres undefined) | – | inconclusive: 18.5 µM [inhibitor, single point]
Cc1cc(OCC(=O)N[C@@H](Cc2ccccc2)C(=O)O)c2c3c(c(=O)oc2c1)CCC3 | inactive: 57.6% | –
COCCNCC(=O)N1CCCCCC1 | – | active: 11.7 µM
CN(Cc1cccc(Cl)c1Cl)C(=O)c1cccc(S(=O)(=O)N2CCN(Cc3ccccc3)CC2)c1 | – | inconclusive: 8.28 µM [inhibitor, partial curve]
CC(C)c1ccccc1NC(=S)NN(Cc1ccccc1)c1ccccc1 | – | active: 11.7 µM
COc1cc(C2C(C(C)=O)=C(O)C(=O)N2CCN(C)C)ccc1O (centres undefined) | – | inconclusive: 8.28 µM [inhibitor, partial curve]
O=C(CSc1nnc(CNC(=O)c2c(F)cccc2F)o1)NCc1ccc(F)cc1 | inactive: -5.63% | –
C=CCNC(=O)c1c(CSc2ccccc2)noc1C(=O)NCc1ccccc1 | – | inconclusive: 1.17 µM [inhibitor, partial curve, poor fit]
CC1Nc2ncnc(N3CCN(c4ccccc4)CC3)c2N(Cc2ccc(Br)cc2)C1=O (centres undefined) | – | inconclusive: 11.7 µM [inhibitor, single point]
O=C(NCCN1CCc2ccccc2C1)C1CCN(S(=O)(=O)N2CCC3(CC2)OCCO3)CC1 | – | inconclusive: 0.37 µM [inhibitor, partial curve, poor fit]
Cc1cc(C(=O)N/N=C/c2cccc3ccccc23)c(C)o1 | – | inconclusive: 6.57 µM [inhibitor, single point]
COc1ccc(C(=O)Nc2ccc(-c3nnn(CC(=O)N4CCN(C(=O)c5ccco5)CC4)n3)cc2)cc1 | – | inconclusive: 5.22 µM [inhibitor, single point]
COC(=O)C(C#N)c1nc2ccccc2nc1N1CCN(Cc2ccc3c(c2)OCO3)CC1 (centres undefined) | – | inconclusive: 18.5 µM [inhibitor, single point]

Structure (SMILES) | activity change, negative = inhibition | Potency
Cc1ccc(C(=O)N2CCCc3ccccc32)c(F)c1F | – | inconclusive: 4.15 µM [inhibitor, partial curve, poor fit]
CCCc1cc(C(=O)Nc2ccc(C(=O)c3ccc(C)cc3)cc2)n(C)n1 | – | inconclusive: 10.4 µM [inhibitor, single point]
CCn1c(CNC(=O)c2cc(OC)c(OC)c(OC)c2)cc2ccccc21 | – | inconclusive: 10.4 µM [inhibitor, single point]
COCCCNC(=S)N/N=C/c1ccc(N(C)C)cc1Cl | – | inconclusive: 18.5 µM [inhibitor, single point]
Cc1ccc(Oc2ccc(Cl)cc2N)cc1 | inactive: 16.7% | –
COc1ccc(-c2nnc3ccc(SCC(=O)Nc4nc5ccccc5s4)nn23)cc1OC | – | inconclusive: 2.94 µM [inhibitor, single point]
COc1ccc(-n2c(=O)c3c(C)c(C)sc3n(Cc3cccc(F)c3)c2=O)c(OC)c1 | – | inconclusive: 5.22 µM [inhibitor, single point]
COc1ccc(C(c2nnnn2CS(=O)(=O)c2ccc(C)cc2)N2CCN(c3ncccn3)CC2)cc1 (centres undefined) | – | inconclusive: 18.5 µM [inhibitor, single point]
C/C(=C\C(=O)N1CCc2ccccc21)C(=O)O | inactive: 15.5% | –
CC1CCN(Cc2c(O)ccc3c(=O)c(-c4nc5ccccc5s4)c(N)oc23)CC1 | – | inconclusive: 0.104 µM [inhibitor, full curve, poor fit]
Cc1ccc(-c2c(C(=O)N/N=C/C3CC=CCC3)nnn2-c2nonc2N)cc1 (centres undefined) | – | active: 9.28 µM
COc1cccc(C(=O)NC2CCCC2)c1 | – | active: 4.65 µM
CCCC(=NC(C)CC)C1=C(O)CC(c2ccccc2)CC1=O (centres undefined) | – | inconclusive: 1.47 µM [inhibitor, full curve]
CCCCc1cc(=O)oc2cc(C)cc(OCC(=O)NCc3cccnc3)c12 | – | active: 9.28 µM
O=C(Nc1ccc(Br)c(C(F)(F)F)c1)c1ccc(C(F)(F)F)cc1 | – | inconclusive: 13.1 µM [inhibitor, partial curve]
COc1ccc(Cn2nnnc2C(c2cc(OC)ccc2OC)N2CCC(C(N)=O)CC2)cc1 (centres undefined) | – | inconclusive: 9.28 µM [inhibitor, partial curve, poor fit]
CCOC(=O)c1cnn(CCOC(=O)Cc2cccs2)c1NC(=O)Cc1cccs1 | – | active: 9.28 µM
CCN1C(=NCc2ccco2)N[C@@H](c2cccc(C(F)(F)F)c2)C(C(=O)OC)=C1C | inactive: 45.2% | –
COc1cccc(N2CCN(CC(=O)c3c(C)[nH]c4ccccc34)CC2)c1 | – | inconclusive: 10.4 µM [inhibitor, single point]
Cc1ccc(OC(C)C(=O)N=Nc2c(O)[nH]c3ccc([N+](=O)[O-])cc23)cc1 (centres undefined) | inactive: 7.42% | –
CC(C)(C)c1ccc(C(=O)Nc2cccc(-n3cnnn3)c2)cc1 | – | inconclusive: 18.5 µM [inhibitor, single point]
Cc1cccc(N/C(N)=N/c2nc(CSc3ccc(Cl)cc3)cc(=O)[nH]2)c1 | – | inconclusive: 0.0738 µM [inhibitor, full curve, poor fit]
CN(C)c1ccc(-c2noc(C3CCN(S(=O)(=O)c4cccc(Cl)c4)CC3)n2)cc1 | – | active: 0.185 µM

Structure (SMILES) | activity change, negative = inhibition | Potency
O=S(=O)(c1cnccc1N1CCN(/N=C/c2ccc(Br)cc2)CC1)N1CCCCC1 | inactive: 123% | –
O=C(Nc1ccncc1)c1ccc([N+](=O)[O-])cc1Cl | inactive: 38.2% | –
CCN(C1CCCCC1)S(=O)(=O)c1ccc(S(=O)(=O)N2CCN(CCC#N)CC2)cc1 | – | active: 6.57 µM
O=c1[nH]cc(N=Cc2cc([N+](=O)[O-])ccc2O)c(=O)[nH]1 | inactive: 12.2% | –
Cc1cc(C)nc(Nc2n[nH]c(-c3cccc4ccccc34)n2)n1 | – | inconclusive: 2.33 µM [inhibitor, full curve]
N/C(CN1CCCC1=O)=N\OC(=O)c1ccccc1Cl | – | inconclusive: 0.415 µM [inhibitor, full curve, poor fit]
COc1ccc(CN2C(=O)CCCc3ccccc32)cc1 | inactive: -14.4% | –
CCOC(=O)c1sc(NC(=O)CN2CC(C)OC(C)C2)nc1C (centres undefined) | – | inconclusive: 18.5 µM [inhibitor, single point]
CC(C)CN(C(=O)CN1C(=O)NC(c2ccccc2)(c2ccccc2)C1=O)C1CCS(=O)(=O)C1 (centres undefined) | – | inconclusive: 18.5 µM [inhibitor, single point]
CC(CCc1ccccc1)NC(=O)Cc1ccccc1 (centres undefined) | inactive: 25.4% | –
CCc1ccccc1NC(=O)CCNC(=O)Cn1ccc2ccccc2c1=O | – | inconclusive: 6.57 µM [inhibitor, partial curve, poor fit]
O=C(Nc1ccc(OC(F)(F)F)cc1)N1CCN(c2ccnc3cc(Cl)ccc23)CC1 | – | inconclusive: 1.65 µM [inhibitor, full curve]
Cc1cc(=O)c(C(=O)O)cn1-c1ccc(C(C)C)cc1 | – | inconclusive: 11.7 µM [inhibitor, single point]
O=C(Cc1cccc2ccccc12)NCCC1=CCCCC1 | inactive: 0% | –
Cc1oc2c(CN3CCC(C)CC3)c(O)ccc2c(=O)c1-c1ccccc1 | – | active: 4.15 µM
Cc1ccc(NS(=O)(=O)c2csc(C(N)=O)c2)cc1C | inactive: 34% | –
O=C(CSc1ncnc2c1cnn2-c1ccccc1)Nc1ccc2c(c1)OCO2 | – | inconclusive: 0.928 µM [inhibitor, full curve]
CCc1cc2ccc(C)c(C)c2nc1SCC(=O)NNC(=O)c1ccco1 | inactive: 13% | –
Cc1cc(NC(=O)COC(=O)c2ccc(NS(=O)(=O)c3ccc(C)c(C)c3)cc2)no1 | – | inconclusive: 0.0037 µM [inhibitor, full curve, poor fit]
CN(Cc1cnccn1)C(=O)CC1C(=O)NCCN1Cc1ccc(F)cc1Cl (centres undefined) | – | inconclusive: 7.38 µM [inhibitor, partial curve]
O=C(Nc1ncc(S(=O)(=O)c2ccc([N+](=O)[O-])cc2)s1)c1cccnc1 | – | inconclusive: 11.7 µM [inhibitor, partial curve, poor fit]
CCN(c1ccccc1)S(=O)(=O)c1ccc(OC)c(NC(=O)Cn2cnc3c2c(=O)n(C)c(=O)n3C)c1 | – | inconclusive: 13.1 µM [inhibitor, partial curve, poor fit]
COc1ccc(/C(N)=N/OC(=O)Cc2ccc(OC)c(OC)c2)cc1 | – | inconclusive: 11.7 µM [inhibitor, partial curve, poor fit]

Part of the list above in order of SMILES length, falling:
Structure (SMILES) | activity change, negative = inhibition | Potency
CCN(c1ccccc1)S(=O)(=O)c1ccc(OC)c(NC(=O)Cn2cnc3c2c(=O)n(C)c(=O)n3C)c1 | – | inconclusive: 13.1 µM [inhibitor, partial curve, poor fit]
COc1ccc(C(=O)Nc2ccc(-c3nnn(CC(=O)N4CCN(C(=O)c5ccco5)CC4)n3)cc2)cc1 | – | inconclusive: 5.22 µM [inhibitor, single point]
CC(C)CN(C(=O)CN1C(=O)NC(c2ccccc2)(c2ccccc2)C1=O)C1CCS(=O)(=O)C1 (centres undefined) | – | inconclusive: 18.5 µM [inhibitor, single point]
CN(Cc1cccc(Cl)c1Cl)C(=O)c1cccc(S(=O)(=O)N2CCN(Cc3ccccc3)CC2)c1 | – | inconclusive: 8.28 µM [inhibitor, partial curve]
Cc1cc(OCC(=O)N[C@@H](Cc2ccccc2)C(=O)O)c2c3c(c(=O)oc2c1)CCC3 | inactive: 57.6% | –
O=C(Nc1ncc(S(=O)(=O)c2ccc([N+](=O)[O-])cc2)s1)c1cccnc1 | – | inconclusive: 11.7 µM [inhibitor, partial curve, poor fit]
COc1ccc(Cn2nnnc2C(c2cc(OC)ccc2OC)N2CCC(C(N)=O)CC2)cc1 (centres undefined) | – | inconclusive: 9.28 µM [inhibitor, partial curve, poor fit]
CC1Nc2ncnc(N3CCN(c4ccccc4)CC3)c2N(Cc2ccc(Br)cc2)C1=O (centres undefined) | – | inconclusive: 11.7 µM [inhibitor, single point]
O=c1[nH]cc(N=Cc2cc([N+](=O)[O-])ccc2O)c(=O)[nH]1 | inactive: 12.2% | –
COc1cccc(N2CCN(CC(=O)c3c(C)[nH]c4ccccc34)CC2)c1 | – | inconclusive: 10.4 µM [inhibitor, single point]
Cc1oc2c(CN3CCC(C)CC3)c(O)ccc2c(=O)c1-c1ccccc1 | – | active: 4.15 µM
C=CCNC(=O)c1c(CSc2ccccc2)noc1C(=O)NCc1ccccc1 | – | inconclusive: 1.17 µM [inhibitor, partial curve, poor fit]
COc1cc(C2C(C(C)=O)=C(O)C(=O)N2CCN(C)C)ccc1O (centres undefined) | – | inconclusive: 8.28 µM [inhibitor, partial curve]
O=C(O)CSCC(=O)N1CCN(c2ccnc3cc(Cl)ccc23)CC1 | – | inconclusive: 14.7 µM [inhibitor, single point]
O=C(Nc1ccncc1)c1ccc([N+](=O)[O-])cc1Cl | inactive: 38.2% | –
Cc1cc(=O)c(C(=O)O)cn1-c1ccc(C(C)C)cc1 | – | inconclusive: 11.7 µM [inhibitor, single point]
O=[N+]([O-])c1ccc(N/N=C\c2cccnc2)nc1 | inactive: 19.5% | –
N/C(CN1CCCC1=O)=N\OC(=O)c1ccccc1Cl | – | inconclusive: 0.415 µM [inhibitor, full curve, poor fit]
CC(CCc1ccccc1)NC(=O)Cc1ccccc1 (centres undefined) | inactive: 25.4% | –
COc1cccc(C(=O)NC2CCCC2)c1 | – | active: 4.65 µM
COCCNCC(=O)N1CCCCCC1 | – | active: 11.7 µM
